Test results reported in PubChem BioAssay AID493014 (National Center for Advancing Translational Sciences (NCATS), 2011).
The campaign covered roughly 340,000 compounds. About 170 (0.05%) were called active. The shares of active, inactive and inconclusive entries below differ from those in the screen. Calls follow the shape of the dose curve; as a rule, active = well fitted inhibition curve with a large enough effect in the signal ratio, with a control signal flat (not every such curve was filed as active); inconclusive = small, poorly fitted or top-dose-only effect, or effect the other way, or a change in a side signal; inactive = flat fitted curve, though single readings scatter; the % refers to the signal ratio. Where the call is inconclusive, the potency comes from a doubtful curve fit.

Test: qHTS Assay to Find Inhibitors of Chronic Active B-Cell Receptor Signaling;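 as to activity change, negative = inhibition: plate controls were basal doxycycline-induced cells for no effect and cells given 10 µM MG132 for full effect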
Conditions: ABC-DLBCL IkBa-CBG/CBR reporter, luminescence ratio (green luciferase fused to IkBa over red control in TMD8 lymphoma cells), 4 h; activity change, negative = inhibition: at 46.1 µM (top of the series)
Outline: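 Concentration-response series (up to 46 uM) were applied to TMD8 dual-reporter cells for 4 h at 37C with doxycycline. Green/red ratio, after filter-overlap correction, defined %Activity; red signal alone was normalised to basal cells and zero luminescence.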
Potency is read from the fitted curve at half-maximal effect.

Row | SMILES | activity change, negative = inhibition | Potency
1 | O=C(O)CSc1nnc2c(n1)[nH]c1ccccc12 | inconclusive: 2.48% | 
2 | COc1ccc(-n2nc3c(N4CCC(C(=O)NCCc5ccccc5C)CC4)nnc(C)c3c2C)cc1 | inactive | 
3 | O=C(O)CCNc1nc(-c2ccccc2)nc2ccccc12 | inactive | 
4 | CN(C)C(CNC(=O)c1ccc(C(=O)c2ccccc2)cc1)c1ccccc1 (stereo not given) | inactive | 
5 | COC(=O)c1[nH]c2cccc(OC)c2c1NC(=O)CCN1CCC(C)CC1 | inactive | 
6 | Cc1cc(C)n(-c2nc(-c3ccc(Cl)cc3)cs2)n1 | inconclusive: 14.5% | 
7 | O=C(Nc1ccccc1)N1CCCC1 | inconclusive: -40.5% | 
8 | CCCCN(C)C(=O)c1cc2cc3ccc(OC)cc3nc2o1 | inactive | 
9 | Cn1c(=O)c2c(ncn2CCO)n(C)c1=O | inconclusive: 2.1% | 
10 | Cc1nc([N+](=O)[O-])c(Br)n1CC(=O)c1ccc(F)cc1 |  | inconclusive: 0.112 µM [falling, full curve, poor fit]
11 | CC(C)C(=O)Nc1nnc(SCc2cccc(F)c2)s1 | inconclusive: 16% | 
12 | CC1=NN(C(=O)COc2ccccc2C)C(O)(c2ccc(Cl)cc2)C1 (stereo not given) |  | inconclusive: 16.4 µM [falling, partial curve, poor fit]
13 | C=CCn1c(SCC(=O)c2ccc(O)c(O)c2)nnc1-c1ccc(C)cc1 |  | inconclusive: 32.6 µM [falling, partial curve, poor fit]
14 | CCOC(=O)c1c(S(=O)(=O)NCC(=O)Nc2cccc(SC)c2)c(C)n(C)c1C | inconclusive: -27.5% | 
15 | Cc1cc(C)cc(OC(=O)c2cccnc2)c1 | inconclusive: 4.43% | 
16 | C#CCOc1c(Cl)cc(C2C3=C(CCCC3=O)N(CC(=O)O)C3=C2C(=O)CCC3)cc1OC | inactive | 
17 | Cc1c(C)c2ccc(OCC(=O)NCCCN3CCCC3=O)cc2oc1=O | inconclusive: 0.701% | 
18 | CC(=O)c1ccc(NC(=O)C(C)OC(=O)c2ccc3c(c2)nc(C)n3-c2ccccc2)cc1 (stereo not given) | inconclusive: -17.3% | 
19 | O=C(Nc1ccccc1C(=O)Nc1ccccn1)c1cccc([N+](=O)[O-])c1 | inconclusive: -13.3% | 
20 | Cn1c(SCC(=O)N2CCOCC2)ncc(C(=O)Nc2ccc(F)cc2)c1=O | inactive | 
21 | COc1ccc(-n2cc(CNCc3cccnc3)c(-c3cccc(F)c3)n2)cc1 |  | inconclusive: 35.5 µM [falling, single point]
22 | CC(=O)NC1C(=O)N=C(SCC(=O)NCc2ccccc2)NC1=O (stereo not given) | inconclusive: 22.2% | 

Row | SMILES | activity change, negative = inhibition | Potency
23 | CCN(C(=O)Cn1c(=O)n(Cc2ccccc2)c(=O)c2ccccc21)c1cccc(C)c1 | inconclusive: 9.51% | 
24 | Cc1cc(C)c2nc(NC(=O)c3ccco3)sc2c1 |  | inconclusive: 22.4 µM [falling, single point]
25 | N#CC1=C2SCN(c3ccccc3)CN2C(=O)CC1c1ccccc1Cl (stereo not given) | inactive | 
26 | CC(C)(C)OC(=O)[C@H](Cc1ccccc1)NC(=O)c1[nH]cnc1C(=O)Nc1ccc(Cl)cc1 | inactive | 
27 | CC(=O)Oc1cccc(Nc2ncnc3ccccc23)c1 |  | inconclusive: 25.1 µM [falling, single point]
28 | CC(C)(C)NCC1(CO)SC(N)=NC1=O (stereo not given) | inconclusive: -6.63% | 
29 | COc1ccc(S(=O)(=O)N2CCOCC2)c2ccccc12 | inconclusive: -9.59% | 
30 | O=C1/C(=C/c2cccs2)SC(=S)N1N1CCOCC1 |  | inconclusive: 5.01 µM [rising, full curve, poor fit]
31 | O=C(COC(=O)c1ccccc1)NCc1ccco1 | inconclusive: 2.1% | 
32 | CC(C)COC(=S)Nc1ccccc1 | inconclusive: -15% | 
33 | CCOC(=O)c1c(C)c(-c2ccccc2)n(CC(=O)N2CCN(C)CC2)c1C |  | inconclusive: 4.61 µM [rising, partial curve]
34 | Cc1[nH]n(C(N)=S)c(=O)c1N=Nc1cccc([N+](=O)[O-])c1C |  | inconclusive: 0.562 µM [falling, partial curve, poor fit]
35 | CNC[C@@H]1Oc2ccc(NC(=O)Nc3cccc4ccccc34)cc2C(=O)N([C@@H](C)CO)C[C@@H]1C | inconclusive: -1.11% | 
36 | CCC(CC)c1nnc(NC(=O)C2CC(=O)N(C3CCCC3)C2)s1 (stereo not given) | inconclusive: -0.357% | 
37 | COc1ccc(C(=O)CNc2ccccc2CO)cc1 |  | inconclusive: 35.5 µM [falling, single point]
38 | O=C(CN1c2cccc3cccc(c23)S1(=O)=O)Nc1cccc(S(=O)(=O)N2CCOCC2)c1 |  | inconclusive: 13 µM [falling, partial curve]
39 | Cc1cc(C)cc(NC(=O)Cn2ncn3c(cc4ccccc43)c2=O)c1 | inconclusive: -12.4% | 
40 | CC(C)(C)c1cc(C(=O)N/N=C/c2ccco2)n[nH]1 | inactive | 
41 | COc1cc(OC)nc(NC(=S)NC(=O)c2ccccc2)n1 |  | inconclusive: 16.4 µM [falling, partial curve]
42 | COc1ccccc1NS(=O)(=O)c1ccc(C)c(NC(=O)C2CCCO2)c1 (stereo not given) | inconclusive: 0.93% | 
43 | Cc1nc(NC(=O)C2CCCCC2)sc1C | inconclusive: -10.9% | 
44 | CN1CCN(C(=S)c2cn(Cc3ccccc3)c3ccccc23)CC1 | inactive | 

Row | SMILES | activity change, negative = inhibition | Potency
45 | Cc1cc(NC(=O)Cc2c(F)cccc2Cl)no1 | inactive | 
46 | CCN(CC)c1ccc2c(C)c(CN3CCOCC3)c(=O)oc2c1 | inactive | 
47 | COc1ccc(/C=C/C(=O)N[C@H](C(=O)O)C(C)C)cc1 |  | inconclusive: 28.2 µM [falling, partial curve]
48 | CCN1CCCC1CNC(=O)c1cc2c(-c3ccc(Cl)cc3)nn(C)c2s1 (stereo not given) | inconclusive: 17.7% | 
49 | Cc1ccc(S(=O)(=O)NCc2csc(C)n2)cc1 | inconclusive: -0.009% | 
50 | Cc1ccc(CNC(=O)CSc2nc(C)cs2)cc1 | inconclusive: 12.2% | 
51 | C=CCc1cc(Cl)ccc1OCCCNCCO |  | inconclusive: 8.91 µM [falling, partial curve, poor fit]
52 | O=C(Nc1cccnc1)c1cc2cc(Br)ccc2oc1=O | inconclusive: 4.6% | 
53 | COc1ccccc1C(=O)Nc1nsc(-c2ccccc2)n1 | inconclusive: -80.8% | 
54 | CNC(=O)CN(Cc1ccccc1)S(=O)(=O)c1ccc(Cl)cc1 | inactive | 
55 | CC1Cc2ccccc2N1C(=O)CSc1ncccc1C(=O)O (stereo not given) | inactive | 
56 | CC1CN/C(=C\C(=O)c2ccc(Br)cc2)C(=O)N1 (stereo not given) |  | inconclusive: 18.4 µM [falling, single point]
57 | CSc1ccc(/C=N/NC(=O)c2ccc(O)cc2)cc1 | inconclusive: 288% | 
58 | CN(C)CCC(=O)N1c2ccccc2Sc2ccc(Cl)cc21 | inconclusive: -19.8% | 
59 | COc1ccc(C2CC(c3cccc(Cl)c3)=NN2c2ccc(S(N)(=O)=O)cc2)cc1 (stereo not given) | inactive | 
60 | COc1ccc(Cc2nnc(NC(=O)c3c(-c4ccccc4)noc3C)s2)cc1OC | inactive | 
61 | O=C(CCC1CCCN(C(=O)c2ccoc2)C1)NCc1ccccc1F (stereo not given) | inconclusive: 17.4% | 
62 | Fc1ccccc1CSc1nnc2ccc(-c3ccncc3)nn12 | inactive | 
63 | Cc1nc2ccccc2c2oc(C(=O)N3CCN(C(=O)c4ccco4)CC3)cc12 | inconclusive: -2.52% | 
64 | Cc1cc2ccccc2n1CCNC(=O)C1CCCCC1 | inactive | 
65 | O=C1CCCC/C1=C/Nc1ccc(C(=O)O)cc1 |  | inconclusive: 4.11 µM [falling, partial curve]
66 | CCCCn1c(N)c(N(CCC(C)C)C(=O)Cc2ccc(S(=O)(=O)N3CCOCC3)s2)c(=O)[nH]c1=O | inconclusive: 2.5% | 

Ordered by number of heavy atoms (low to high): some entries from above.
Row | SMILES | activity change, negative = inhibition | Potency
1 | O=C(O)CSc1nnc2c(n1)[nH]c1ccccc12 | inconclusive: 2.48% | 
34 | Cc1[nH]n(C(N)=S)c(=O)c1N=Nc1cccc([N+](=O)[O-])c1C |  | inconclusive: 0.562 µM [falling, partial curve, poor fit]
8 | CCCCN(C)C(=O)c1cc2cc3ccc(OC)cc3nc2o1 | inactive | 
21 | COc1ccc(-n2cc(CNCc3cccnc3)c(-c3cccc(F)c3)n2)cc1 |  | inconclusive: 35.5 µM [falling, single point]
59 | COc1ccc(C2CC(c3cccc(Cl)c3)=NN2c2ccc(S(N)(=O)=O)cc2)cc1 (stereo not given) | inactive | 

Next part.

Row | SMILES | activity change, negative = inhibition | Potency
67 | CCOc1cc(S(=O)(=O)NCc2cccs2)ccc1Cl | inactive | 
68 | N#C/C(=C\Nc1ccccc1O)c1nc2ccccc2o1 | inconclusive: 17.1% | 
69 | O=C(/C=C/c1ccco1)Nc1ccccn1 |  | inconclusive: 18.4 µM [falling, partial curve]
70 | C=C(C)COc1ccc(-c2[nH]ncc2-c2ccc(OC)c(OC)c2)c(O)c1 | inactive | 
71 | COc1cccc(/C=N/Nc2nn3cnnc3c3ccccc23)c1 | inconclusive: -11.7% | 
72 | CN1CCc2c(sc3nc(SCC(N)=O)n(-c4ccccc4)c(=O)c23)C1 | inconclusive: 2.06% | 
73 | CC(=O)Oc1ccccc1C1=NN(C(=O)/C=C/c2ccccc2)C(c2ccccc2)C1 (stereo not given) | inconclusive: 6.56% | 
74 | CCOC(=O)c1sc(NC(=O)CCN2C(=O)c3ccccc3C2=O)c(C(=O)OCC)c1C | inconclusive: 1.26% | 
75 | Cc1nc2nc(SCC(=O)NCCCN3CCCC3)nn2c(C)c1Cc1ccccc1Cl | inactive | 
76 | O=C(O)c1cc2c(cc1NC(=O)c1ccccc1OC(F)F)OCCCO2 |  | inconclusive: 31.6 µM [falling, single point]
77 | COc1ccc(-c2csc(Nc3cccc(C)n3)n2)cc1 |  | inconclusive: 22.4 µM [falling, single point]
78 | Cc1cccc(NC(=O)COc2ccc(Br)cc2)n1 |  | inconclusive: 18.4 µM [falling, partial curve]
79 | N=c1n(CCO)c2ccccc2n1CCOc1ccccc1 | inactive | 
80 | Cc1cccc(-c2noc(CCCC(=O)N3CCOCC3)n2)c1 |  | inconclusive: 2.59 µM [rising, full curve]
81 | O=C(COC(=O)C1=COCCO1)Nc1ccccc1OC(F)F | inactive | 
82 | CCOc1ccccc1N(CC(=O)Nc1ccccc1F)S(=O)(=O)c1ccccc1 | inconclusive: 1.2% | 
83 | Cc1ccc(Oc2cc([N+](=O)[O-])cc3c2C(=O)Nc2ccccc2O3)cc1 | inconclusive: 11.1% | 
84 | O=S(=O)(c1ccc(-c2nc3ccccc3s2)cc1)N1CCCC1 | inconclusive: 15.4% | 
85 | Cc1cccc(C(=O)NNS(=O)(=O)c2ccc(F)cc2)c1 |  | inconclusive: 7.08 µM [falling, full curve, poor fit]
